Measurements: patent US20050026285A1 (Harvard, published 2005)
No constants are given. Whether binding was seen depends on the method and setting. Binding seen in cells or lysates may run through a third protein. Binding calls can cover weak binding; strength is not graded here. Where a sequence is shown, tags or fusion partners need not be part of it.

Tests used:
[1] = target: FLAG-tagged TRAF2 (87-501); test: coimmunoprecipitation from 293T cells
FLAG-tagged TRAF4 [2] = test: coimmunoprecipitation from 293T cells at 300 mM instead of 137 mM NaCl
FLAG-tagged TRAF6 [3] = test: as above
FLAG-tagged TRAF3 [4] = test: as above
FLAG-tagged TRAF2 [5] = test: summary of the coimmunoprecipitation experiments of Example 1
FLAG-tagged TRAF6 [6] = test: as above
c-Jun/c-Fos AP-1 complex = test: coimmunoprecipitation from 293T cells, anti-myc IP
FLAG-tagged TRAF2 [7] = test: coimmunoprecipitation from 293T cells, anti-MYC IP, anti-FLAG blot
FLAG-tagged TRAF4 [8] = test: as above
[9] = target: FLAG-tagged TRAF2 (87-501); test: as above
FLAG-tagged TRAF6 [10] = test: as above
FLAG-tagged TRAF3 [11] = test: as above
FLAG-tagged TRAF1 = test: as above

binding [1]: binds | binding (FLAG-tagged TRAF4 [2]): binds | binding (FLAG-tagged TRAF6 [3]): binds | binding (FLAG-tagged TRAF3 [4]): binds | binding (FLAG-tagged TRAF2 [5]): binds | binding (FLAG-tagged TRAF6 [6]): binds | binding (c-Jun/c-Fos AP-1 complex): binds | binding (FLAG-tagged TRAF2 [7]): binds | binding (FLAG-tagged TRAF4 [8]): binds | binding [9]: binds | binding (FLAG-tagged TRAF6 [10]): binds | binding (FLAG-tagged TRAF3 [11]): binds | binding (FLAG-tagged TRAF1): binds
B1: MYC-tagged KRC tr (KRC amino acids 204-1055 with N-terminal myc epitope tag) (protein, not shown: small tags and cut ends)
chain: PSVLQKHIRSHTGERPYPCGPCGFSFKTKSNLYKHRKSHAHRIKAGLASGMGGEMYPHGLEMERIPGEEFEEPTEGESTDSEEETSATSGHPAELSPRPKQPLLSSGLYSSGSHSSSHERCSLSQSSTAQSLEDPPPFVEPSSEHPLSHKPEDTHTIKQKLALRLSERKKVIDEQAFLSPGSKGSTESGYFSRSESAEQQVSPPNTNAKSYAEIIFGKCGRIGQRTAMLTATSTQPLLPLSTEDKPSLVPLSVPRTQVIEHITKLITINEAVVDTSEIDSVKPRRSSLSRRSSMESPKSSLYREPLSSHSEKTKPEQSLLSLQHPPSTAPPVPLLRSHSMPSAACTISTPHHPFRGSYSFDDHITDSEALSRSSHVFTSHPRMLKPQPAIELPLGGEYSSEEPGPSSKDTASKPSDEVEPKESELTKKTKKGLKTKGVIYECNICGARYKKRDNYEAHKKYYCSELQIAKPISAGTHTSPEAEKSQIEHEPWSQMMHYKLGTTLELTPLRKRRKEKSLGDEEEPPAFESTKSQFGSPGPSDAARNLPLESTKSPAEPSKSVPSLEGPTGFQPRTPKPGSGSESGKERRTTSKEISVIQHTSSFEKSDSLEQPSGLEGEDKPLAQFPSPPPAPHGRSAHSLQPKLVRQPNIQVPEILVTEEPDRPDTEPEPPPKEPEKTEEFQWPQRSQTLAQLPAEKAPPKKKRLRLAEMAQSSGESSFESSVPLSRSPSQESNVSLSGSSRSASFERDDHGKAEAPDPSSDMRPKPLGTHMLTVPSHHPHAREMRRSASEQSPNVSHSAHMTETRSKSFDYGSLSLTGPSAPAPVAPPAGEAPPERRKCFLVRSPSLSRPP
